Laboratory results reported in the supplement of paper PMC10981050.
Where “and” joins values, the source holds several entries; their conditions need not be identical. Equal values may be shown once. Shown are results outside the selection of strong results, which stands elsewhere.

Key:
Experiment in all cases: cell viability relative to vehicle control; higher = less cytotoxic
Details in all cases: 10 µM
K562 = system: K562
Method in brief: (§1)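 CRISPR-edited SRSF2 P95 mutant and isogenic wild-type clones of four leukaemia lines were screened against Selleck bioactive, kinase and epigenetic probe libraries, with identity-inconsistent compounds removed. Compounds were acoustically dispensed into 384-well plates at a single 10 µM dose, with 2000 cells in 50 µL medium per well. After 48 h, supernatant was removed and CellTiter-Glo luminescence was read. Viability was expressed as percent of the on-plate DMSO vehicle control, analysed in Genedata Screener.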

MARIMO = system: MARIMO
Method in brief: as §1

MOLM14 = system: MOLM14
Method in brief: as §1

OCI-AML2 = system: OCI-AML2
Method in brief: as §1

Q: `Cc1c(C(=O)NN2CCCCC2)nn(-c2ccc(Cl)cc2Cl)c1-c1ccc(I)cc1` was tested. Which cell viability (K562; SRSF2 genotype: SRSF2 P95H/wt) did it give?
A: 81.2% and 81.6%

Q: And the cell viability (K562; SRSF2 genotype: SRSF2 wt/wt)?
A: 74.8%

Q: And the cell viability (MARIMO; SRSF2 genotype: SRSF2 P95H/wt)?
A: 85.6%

Q: And the cell viability (MARIMO; SRSF2 genotype: SRSF2 wt/wt)?
A: 95.8%

Q: What about the cell viability (MOLM14; SRSF2 genotype: SRSF2 P95H/wt) of the same compound?
A: 75.9%

Q: And the cell viability (MOLM14; SRSF2 genotype: SRSF2 wt/wt)?
A: 83.5%

Q: And the cell viability (OCI-AML2; SRSF2 genotype: P95H/wt)?
A: 71%

Q: What about the cell viability (OCI-AML2; SRSF2 genotype: wt/wt) of the same compound?
A: 82.1%
